In patent US8263606B2 (Xenon Pharmaceuticals Inc., priority 2008, dated 2012):
At least one compound was matched to its structure with a doubt left.

Test system: inactivated state of the channel of interest (sodium channel)
Assay: Electrophysiological assay (whole cell voltage clamp, in vitro)
Assay type: cell-based
Settings: affinity for the inactivated state of the channel of interest
Description: Cells expressing the channel of interest are cultured in DMEM growth media (Gibco) with 0.5 mg/mL G418, +/−1% PSG, and 10% heat-inactivated fetal bovine serum at 37° C. and 5% CO2. For electrophysiological recordings, cells are plated on 10 mm dishes.
Whole cell recordings are examined by established methods of whole cell voltage clamp (Bean et al., op. cit.) using an Axopatch 200B amplifier and Clampex software (Axon Instruments, Union City, Calif.). All experiments are performed at ambient temperature. Electrodes are fire-polished to resistances of 2-4 Mohms Voltage errors and capacitance artifacts are minimized by series resistance compensation and capacitance compensation, respectively. Data are acquired at 40 kHz and filtered at 5 kHz. The external (bath) solution consists of: NaCl (140 mM), KCl (5 mM), CaCl2 (2 mM), MgCl2 (1 mM), HEPES (10 mM) at pH 7.4. […]
The steady-state voltage-dependence of binding of a compound to a sodium channel is determined by measuring the blockage of the ionic current at two holding potentials. Binding to rested-state channels is determined by using a holding potential of −120 mV, so that maximal availability is achieved. Binding to inactivated-state channels is evaluated at a holding potential such that only 10% of the channels are available to open. […]
The apparent dissociation constant at each voltage is calculated with the equation: […]

## O=C1Nc2cccc(F)c2C12COc1cc3c(cc12)OCCO3 (stereo not shown) [Example 3.33, 4′-fluoro-2,3-dihydrospiro[furo[2,3-g][1,4]benzodioxine-8,3′-indol]-2′(1′H)-one]
  Ki: < 0.3 µM
